Measured values taken from paper PMC5549992.
Results are given in words; binding and its absence hold for the method and conditions named. Some results given as binding are weak or reduced against the parent protein; the word gives no strength. Sequences can lack the tags named with a protein.

By UniProt entry, the sequences of proteins in these tests, tags left out. Residues count along the entry.
UniProt O65934, 201-310: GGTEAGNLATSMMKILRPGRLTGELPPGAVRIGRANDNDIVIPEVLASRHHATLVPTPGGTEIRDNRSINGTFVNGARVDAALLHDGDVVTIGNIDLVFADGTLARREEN

Experiments:
[1] = target: T1, Histidine (His6)-tagged Rv2623 expressed in M. smegmatis mc2155 (M. tuberculosis) (UniProt P9WFD7); experiment: pull-down; both purified
T1 sequence: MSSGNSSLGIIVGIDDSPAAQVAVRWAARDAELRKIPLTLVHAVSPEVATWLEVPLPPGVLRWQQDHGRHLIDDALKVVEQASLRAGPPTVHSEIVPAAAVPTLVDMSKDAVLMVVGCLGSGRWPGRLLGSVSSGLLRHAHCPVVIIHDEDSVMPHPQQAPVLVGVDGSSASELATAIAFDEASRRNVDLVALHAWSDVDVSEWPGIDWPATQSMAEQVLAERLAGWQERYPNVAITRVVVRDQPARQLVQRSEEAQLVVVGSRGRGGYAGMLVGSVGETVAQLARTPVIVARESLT

[2] = target: T2, Mycobacterium tuberculosis universal stress protein Rv2623, GAL4 DNA-binding domain fusion (pGBKT7::Rv2623) (M. tuberculosis) (UniProt P9WFD7); experiment: two-hybrid
T2 sequence: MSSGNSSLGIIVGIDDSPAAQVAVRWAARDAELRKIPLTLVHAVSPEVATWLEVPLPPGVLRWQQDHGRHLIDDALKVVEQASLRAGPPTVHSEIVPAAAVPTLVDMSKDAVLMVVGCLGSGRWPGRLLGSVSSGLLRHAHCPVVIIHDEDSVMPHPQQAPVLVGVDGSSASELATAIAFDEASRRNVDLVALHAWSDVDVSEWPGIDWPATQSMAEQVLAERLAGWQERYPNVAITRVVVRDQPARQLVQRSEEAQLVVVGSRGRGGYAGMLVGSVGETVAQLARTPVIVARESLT

Molecule: N-terminal FLAG-FHA II fusion (Rv1747 amino acids 201-310), pSD vector-expressed (from UniProt O65934 201-310) (domain or fragment)
- binding [1]: no binding

B1: Mycobacterium tuberculosis universal stress protein Rv2623, GAL4 DNA-binding domain fusion (pGBKT7::Rv2623) (protein, UniProt P9WFD7 1-297)
chain: MSSGNSSLGIIVGIDDSPAAQVAVRWAARDAELRKIPLTLVHAVSPEVATWLEVPLPPGVLRWQQDHGRHLIDDALKVVEQASLRAGPPTVHSEIVPAAAVPTLVDMSKDAVLMVVGCLGSGRWPGRLLGSVSSGLLRHAHCPVVIIHDEDSVMPHPQQAPVLVGVDGSSASELATAIAFDEASRRNVDLVALHAWSDVDVSEWPGIDWPATQSMAEQVLAERLAGWQERYPNVAITRVVVRDQPARQLVQRSEEAQLVVVGSRGRGGYAGMLVGSVGETVAQLARTPVIVARESLT
- binding [2]: binds
